The results are deposited in PubChem (AID1224904; Broad Institute, 2016).

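293T-iDUX4 dual-reporter cells; luminescence of the tet-on Italica luciferase control is read after 24 h. The test concentration is not given here. Percent change in the Italica control signal; more negative values mean stronger inhibition, which points to nonspecific, tet-on or cytotoxic effects.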

Values are in %. Common to all entries: measured here: Italica tet-on control reporter. This is a side read-out of the assay, for part of the compounds, not drawn at random.

- N#Cc1cccc(-c2ccc3c(c2)[C@H]2[C@H](CCN2C(=O)c2ccccc2F)[C@H](CO)N3)c1 | activity change -27.46%
- O=C(C[C@@H]1CC[C@@H]2[C@H](COC[C@H](O)CN2Cc2cccc(-c3ccncc3)c2)O1)N1CCOCC1 | activity change -22.19%
- COCC(=O)N1CCC2(CC1)CN(Cc1ccccc1Cl)[C@@H](CO)c1c2c2ccc(OC)cc2n1C | activity change -8.112%
- CCC(=O)N1CC2(C1)CN(Cc1cccc(Cl)c1)[C@@H](CO)c1[nH]c3cc(OC)ccc3c12 | activity change -35.98%
- COc1ccc(S(=O)(=O)N2CC[C@@H]3[C@@H](CO)Nc4ccc(-c5ccc(C#N)cc5)cc4[C@@H]32)cc1 | activity change -42.49%
- O=C(C[C@H]1CC[C@@H]2[C@H](COC[C@H](O)CN2S(=O)(=O)c2ccccc2)O1)NCc1ccc(-c2ccccc2)cc1 | activity change -13.14%
- COc1ccc(S(=O)(=O)N2C[C@H](O)COC[C@H]3O[C@H](CC(=O)NCc4ccc(Cl)c(Cl)c4)CC[C@@H]32)cc1 | activity change -22.11%
- Cc1ccccc1S(=O)(=O)N1C[C@@H](O)COC[C@@H]2O[C@H](CC(=O)N3CCC(Cc4ccccc4)CC3)CC[C@H]21 | activity change -15.42%
- COc1cccc(C(=O)Nc2ccc3c(c2)OC[C@@H](C)N(CCc2ccccc2)C[C@H](C)[C@H](OC)CN(C)C3=O)c1 | activity change -4.797%
- O=C(Nc1ccc2c(c1)[C@H]1C[C@H](CC(=O)N3CCc4ccccc4C3)O[C@H](CO)[C@H]1O2)Nc1ccccc1F | activity change -48.26%
- COC(=O)c1ccc(CN2CC(=O)N3[C@H](CO)[C@H](c4ccc(-c5ccccc5F)cc4)[C@@H]3C2)cc1 | activity change -3.126%
- C/C=C/c1ccccc1[C@H]1[C@@H](C#N)N(c2nc(CC)cs2)[C@@H]1CO | activity change -17.15%
- CC(C)CC#Cc1ccc([C@H]2[C@@H](CO)N3C(=O)CN(C(=O)NC4CCCCC4)C[C@@H]23)cc1 | activity change -25.65%
- COc1ccc(-c2ccc3c(c2)[C@H]2[C@H](CCN2S(=O)(=O)c2ccccc2F)[C@H](CO)N3C)cc1 | activity change -41.56%
- OC[C@@H]1[C@H](c2ccc(C3=CCCCC3)cc2)[C@@H]2CN(CCC(F)(F)F)CCCCN12 | activity change -3.9%
- O=C(NC1CCC1)[C@H]1[C@H](CO)[C@H]2Cn3c(ccc(-c4ccccc4)c3=O)[C@H]2N1CCc1ccccc1 | activity change -6.037%
- C[C@@H]1CN([C@H](C)CO)C(=O)CCCn2cc(nn2)CO[C@@H]1CN(C)Cc1ccc2c(c1)OCCN2C | activity change 5.692%
- COc1ccc(NC(=O)N2CCCCN3[C@H](CO)[C@H](c4ccc(C#CCC(C)C)cc4)[C@H]3C2)cc1 | activity change -72.98%
- COc1ccc(-c2ccc(C3[C@@H]4CN(S(=O)(=O)c5cccc(C)c5)C[C@H]3N4)cc2)cc1 (stereo partly drawn) | activity change -24.65%
- COc1ccccc1-c1ccc2c(c1)[C@H]1[C@H](CCN1S(=O)(=O)c1ccccc1)[C@@H](CO)N2 | activity change -55.03%
- C(=C\c1ccc(C2[C@@H]3CN(Cc4nccs4)C[C@H]2N3)cc1)/c1ccccc1 (stereo partly drawn) | activity change -97.4%
- N#C[C@H]1[C@H](c2ccccc2-c2cccc(F)c2)[C@@H](CO)N1C(=O)C1CCCCC1 | activity change -18.56%
- CCS(=O)(=O)N1CCC2(CC1)CN(S(=O)(=O)c1ccccc1)[C@H](CO)c1c2c2ccc(OC)cc2n1C | activity change -14.3%
- CO[C@@H]1CN(C)C(=O)c2ccc(NC(=O)c3ccc4c(c3)OCO4)cc2OC[C@@H](C)N(Cc2ccc3c(c2)OCO3)C[C@H]1C | activity change -17.64%
- COc1cccc(S(=O)(=O)N2CC[C@@H]3[C@H](CO)Nc4ccc(C5=CCCCC5)cc4[C@@H]32)c1 | activity change -68.58%
- CO[C@@H]1CN(C)C(=O)c2ccc(NS(=O)(=O)c3cccc(F)c3)cc2OC[C@@H](C)NC[C@H]1C | activity change 1.247%
- COc1cccc(S(=O)(=O)Nc2ccc3c(c2)C(=O)N(C)C[C@@H](OC)[C@@H](C)CN(Cc2ccccc2F)[C@@H](C)CO3)c1 | activity change -19.44%

Repeated from the top, 3 entries:

* N#Cc1cccc(-c2ccc3c(c2)[C@H]2[C@H](CCN2C(=O)c2ccccc2F)[C@H](CO)N3)c1 : activity change -27.46%
* O=C(C[C@@H]1CC[C@@H]2[C@H](COC[C@H](O)CN2Cc2cccc(-c3ccncc3)c2)O1)N1CCOCC1 : activity change -22.19%
* COCC(=O)N1CCC2(CC1)CN(Cc1ccccc1Cl)[C@@H](CO)c1c2c2ccc(OC)cc2n1C : activity change -8.112%